Measured values: PubChem BioAssay AID743255 (National Center for Advancing Translational Sciences (NCATS), 2014)
Hit rate of the full screen: of about 390,000 compounds, about 910 (0.23%) were called active. The shares of active, inactive and inconclusive entries below differ from those in the screen. Calls come from the whole dose curve; as a rule, active = well fitted inhibition curve with a large enough effect; inconclusive = small, poorly fitted or top-dose-only effect; inactive = no such curve, though single readings can be large or run the other way. Potencies of inconclusive entries are doubtful fits and often do not repeat.

Amino acid sequences for entries named in this document (tags omitted). A change or cut given only in a name is not applied to a line headed by its entry.
UniProt O94782: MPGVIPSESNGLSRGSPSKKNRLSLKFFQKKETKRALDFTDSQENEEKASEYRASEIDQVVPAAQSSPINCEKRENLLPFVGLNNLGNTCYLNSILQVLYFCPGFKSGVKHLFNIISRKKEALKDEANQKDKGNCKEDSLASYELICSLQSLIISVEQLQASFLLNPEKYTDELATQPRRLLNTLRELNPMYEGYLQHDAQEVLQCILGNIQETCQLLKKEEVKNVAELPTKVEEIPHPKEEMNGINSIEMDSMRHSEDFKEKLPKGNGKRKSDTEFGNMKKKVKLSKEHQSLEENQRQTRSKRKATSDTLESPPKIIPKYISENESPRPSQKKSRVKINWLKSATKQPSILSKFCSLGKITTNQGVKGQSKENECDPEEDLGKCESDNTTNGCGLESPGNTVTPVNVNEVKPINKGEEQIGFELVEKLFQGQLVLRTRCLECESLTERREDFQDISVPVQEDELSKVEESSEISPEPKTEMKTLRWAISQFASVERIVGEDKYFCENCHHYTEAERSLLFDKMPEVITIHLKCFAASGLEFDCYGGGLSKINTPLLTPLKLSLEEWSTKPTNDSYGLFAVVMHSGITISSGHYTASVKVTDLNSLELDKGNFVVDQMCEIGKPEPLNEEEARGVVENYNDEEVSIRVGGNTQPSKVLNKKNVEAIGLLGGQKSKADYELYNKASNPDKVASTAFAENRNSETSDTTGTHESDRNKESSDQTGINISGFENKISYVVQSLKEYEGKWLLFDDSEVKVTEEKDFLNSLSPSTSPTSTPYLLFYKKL

The compounds below were run against Ubiquitin carboxyl-terminal hydrolase 1 (Homo sapiens) (UniProt O94782) (assay: Inhibitors of USP1/UAF1: Primary Screen). Conditions: recombinant USP1/UAF1, Ub-Rhodamine cleavage fluorescence; activity change, negative = inhibition: at 57.1 µM (top of the series).
How it was run: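 1 nM enzyme complex + cpd, 15 min RT; start with Ub-Rho 150nM final; kinetic fluorescence ex 480/em 540, 6 reads q60 s. Buffer 50mM HEPES pH 7.8, 0.5mM EDTA, 0.1 mg/ml BSA, 1mM TCEP, 0.01% Tween-20.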
% is set by controls: 0 for no effect and ±100 for the full control effect; potency is the fitted concentration of half-maximal effect.
Note: nearly all actives have a fitted effect of over 60% in size.

Compound	Potency	activity change, negative = inhibition
O=S(=O)(NCCc1ccncc1)c1ccc(F)cc1	inconclusive: 1 µM [inhibitor, full curve, poor fit]	
CCC(CC)C(=O)N1CC(=O)Nc2ccc(Br)cc2C1c1ccccc1 (stereo unspecified)	inconclusive: 4.47 µM [inhibitor, partial curve]	
Cc1cc(C(=O)CSc2n[nH]c(N)n2)c(C)n1-c1cccc(F)c1	inconclusive: 0.355 µM [inhibitor, full curve, poor fit]	
CCOC(=O)C1=C(C)NC(=O)/C1=C\N(C)C	inconclusive: 39.8 µM [inhibitor, partial curve, poor fit]	
O=C(C1CCCN1S(=O)(=O)c1cccc2cccnc12)N1CCc2ccccc21 (stereo unspecified)	inconclusive: 0.891 µM [inhibitor, full curve, poor fit]	
COCCn1c(NC(=S)NC(=O)C2CC2)cc(=O)[nH]c1=O		inactive: -17.6%
CN(C)CCN1C(=O)C(=O)/C(=C(/O)c2ccc(S(=O)(=O)N3CCOCC3)cc2)C1c1ccccc1 (stereo unspecified)	inconclusive: 31.6 µM [inhibitor, single point]	
c1ccc(-c2nc(N3CCOCC3)c3ccccc3n2)nc1		inactive: -11.1%
CCOc1ccc(C(=O)CSc2nnc3cc(C)c4ccccc4n23)cc1		inactive: -24.8%
CCSc1oc(-c2ccc(F)cc2)nc1S(=O)(=O)c1ccc(C)cc1	inconclusive: 50.1 µM [inhibitor, partial curve, poor fit]	
COc1ccc(-c2noc(N3CCN(c4cccc(Cl)c4)CC3)n2)cc1OC	inconclusive: 1.41 µM [inhibitor, full curve, poor fit]	
Cc1ccc(OCC(=O)Nc2cc(Cl)ccc2-n2cncn2)c(C)c1	inconclusive: 0.251 µM [inhibitor, full curve, poor fit]	
COC(=O)c1ccc(COc2ccc(/C=N/Nc3cccc(C(=O)O)c3)cc2)cc1		inactive: 0.377%
CCCC(=O)NC(C)c1nc2ccccc2n1CC (stereo unspecified)	inconclusive: 63.1 µM [inhibitor, partial curve, poor fit]	
NNc1nc2ccc(F)cc2s1		inactive: -17.9%
CCOC(=O)c1ccc(NC(=O)c2cc(=O)c3ccc(C)c(C)c3o2)cc1	inconclusive: 0.631 µM [inhibitor, full curve, poor fit]	
Cc1noc(/C=C/N(C)C)c1S(=O)(=O)N1CCC(C(=O)NC(C)(C)C)CC1		inactive: -18.2%
CN1CCN(c2ccc(NC(=O)c3ccc4ccccc4c3)cc2)CC1		inactive: -9.47%
C[C@H]1CN([C@@H](C)CO)C(=O)c2cccc(NC(=O)c3nc4ccccc4s3)c2O[C@H]1CN(C)C(=O)Nc1ccc(F)cc1	inconclusive: 0.251 µM [inhibitor, full curve, poor fit]	
Cc1cc[n+](-c2[nH]c(=O)sc2/C=N/N=C(\[O-])c2ccccc2)cc1C	inconclusive: 39.8 µM [inhibitor, partial curve, poor fit]	
Cc1noc(C)c1S(=O)(=O)N(CC(=O)Nc1ccc(C(F)(F)F)cc1)c1ccc(C(C)C)cc1	inconclusive: 12.6 µM [inhibitor, partial curve, poor fit]	
O=C(O)c1cc(O)c2c(c1)C(=O)c1cc(O)cc(O)c1C2=O	inconclusive: 35.5 µM [inhibitor, single point]	

Compound	Potency	activity change, negative = inhibition
O=C(O)C1OC(Oc2cc3oc(-c4ccccc4)cc(=O)c3c(O)c2O)C(O)C(O)C1O (stereo unspecified)	inconclusive: 50.1 µM [inhibitor, partial curve]	
C/C(N)=C(/C#N)C(=O)COC(=O)c1cccc(O)c1		inactive: -24.6%
CCOCCCNC(=O)Cn1ncc2c([nH]c3ccccc32)c1=O		inactive: -1.34%
C=CCOC(=O)C1=C(C)NC(SC)=C(C#N)C1c1ccc(OCC)cc1 (stereo unspecified)	inactive	
O=C(O)COc1ccccc1C(Nc1cccnc1)c1cc(Cl)c2cccnc2c1O (stereo unspecified)	inconclusive: 50.1 µM [inhibitor, partial curve, poor fit]	
Cc1cccc(N2CCN(C(=O)c3cc4ccc5cccnc5c4[nH]3)CC2)c1C	inconclusive: 31.6 µM [inhibitor, partial curve]	
CCCN(CCC)CCNC(=O)c1cc2c(=O)oc3ccc(C)cc3c2s1	inconclusive: 11.2 µM [inhibitor, full curve, poor fit]	
O=C1CCC[C@@H]2C[C@@]3(C[C@@H]4CCN1[C@H]24)Nc1cc(Cl)ccc1NC3=NCc1ccccc1	inconclusive: 70.8 µM [inhibitor, partial curve, poor fit]	
O=C(Nc1cccnc1)C1CCN(S(=O)(=O)c2cccc3nonc23)CC1	inconclusive: 0.562 µM [inhibitor, full curve, poor fit]	
CCn1cc(C(=O)O)c(=O)c2cnc(N3CCN(C(=S)NC(=O)c4ccc(F)c(F)c4)CC3)nc21	inconclusive: 0.316 µM [inhibitor, full curve, poor fit]	
COc1ccccc1CCNC(=O)c1cc(-c2ccncc2)nc2ccc(Br)cc12	inconclusive: 25.1 µM [inhibitor, partial curve]	
CC1=C(C(=O)OC(C)(C)C)C(c2ccc(Br)cc2)NC(=O)N1CCCC(=O)O (stereo unspecified)	inconclusive: 12.6 µM [inhibitor, partial curve, poor fit]	
O=C(Cn1ccc([N+](=O)[O-])n1)NCc1nc2ccccc2[nH]1	inconclusive: 1.26 µM [inhibitor, partial curve]	
Oc1ccccc1-c1nc(NC2CCCC2)c2ccccc2n1		inactive: -22.2%
NC(=O)c1c(NC(=O)CS(=O)(=O)c2ccc(Cl)cc2)sc2c1CCCC2	inconclusive: 355 µM [inhibitor, partial curve, poor fit]	
CC12CCC(C/C1=N\N=C1\NC(=O)/C(=C\c3cccc(Br)c3)S1)C2(C)C (stereo unspecified)	inconclusive: 44.7 µM [inhibitor, partial curve]	
Cc1ccc(NS(=O)(=O)c2cccc3cccnc23)c(Br)c1		inactive: -13.3%
Cc1nc(C(F)(F)F)ccc1C(=O)Nc1ccccc1F	inconclusive: 50.1 µM [inhibitor, partial curve, poor fit]	
Cc1ccc(S(=O)(=O)N(C)C)cc1NC(=O)C1CCC1	inconclusive: 7.08 µM [inhibitor, single point]	
Cc1ccccc1NC(=O)c1c(C)oc2ccc(O)c(CN(C)Cc3ccccc3)c12	inconclusive: 15.8 µM [inhibitor, partial curve, poor fit]	
O=C1CC(c2ccc3ccccc3c2)NN1 (stereo unspecified)	inconclusive: 11.2 µM [inhibitor, full curve]	
Brc1ccc(-c2nn3c(-c4ccco4)nnc3s2)o1		inactive: -9.28%

Molecules above that contain four or more nitrogen atoms:
Compound	Potency	activity change, negative = inhibition
Cc1cc(C(=O)CSc2n[nH]c(N)n2)c(C)n1-c1cccc(F)c1	inconclusive: 0.355 µM [inhibitor, full curve, poor fit]	
COCCn1c(NC(=S)NC(=O)C2CC2)cc(=O)[nH]c1=O		inactive: -17.6%
c1ccc(-c2nc(N3CCOCC3)c3ccccc3n2)nc1		inactive: -11.1%
COc1ccc(-c2noc(N3CCN(c4cccc(Cl)c4)CC3)n2)cc1OC	inconclusive: 1.41 µM [inhibitor, full curve, poor fit]	
Cc1ccc(OCC(=O)Nc2cc(Cl)ccc2-n2cncn2)c(C)c1	inconclusive: 0.251 µM [inhibitor, full curve, poor fit]	
Cc1noc(/C=C/N(C)C)c1S(=O)(=O)N1CCC(C(=O)NC(C)(C)C)CC1		inactive: -18.2%
C[C@H]1CN([C@@H](C)CO)C(=O)c2cccc(NC(=O)c3nc4ccccc4s3)c2O[C@H]1CN(C)C(=O)Nc1ccc(F)cc1	inconclusive: 0.251 µM [inhibitor, full curve, poor fit]	
Cc1cc[n+](-c2[nH]c(=O)sc2/C=N/N=C(\[O-])c2ccccc2)cc1C	inconclusive: 39.8 µM [inhibitor, partial curve, poor fit]	
CCOCCCNC(=O)Cn1ncc2c([nH]c3ccccc32)c1=O		inactive: -1.34%
Cc1cccc(N2CCN(C(=O)c3cc4ccc5cccnc5c4[nH]3)CC2)c1C	inconclusive: 31.6 µM [inhibitor, partial curve]	
O=C1CCC[C@@H]2C[C@@]3(C[C@@H]4CCN1[C@H]24)Nc1cc(Cl)ccc1NC3=NCc1ccccc1	inconclusive: 70.8 µM [inhibitor, partial curve, poor fit]	
O=C(Nc1cccnc1)C1CCN(S(=O)(=O)c2cccc3nonc23)CC1	inconclusive: 0.562 µM [inhibitor, full curve, poor fit]	
CCn1cc(C(=O)O)c(=O)c2cnc(N3CCN(C(=S)NC(=O)c4ccc(F)c(F)c4)CC3)nc21	inconclusive: 0.316 µM [inhibitor, full curve, poor fit]	
O=C(Cn1ccc([N+](=O)[O-])n1)NCc1nc2ccccc2[nH]1	inconclusive: 1.26 µM [inhibitor, partial curve]	
Brc1ccc(-c2nn3c(-c4ccco4)nnc3s2)o1		inactive: -9.28%

The results go on:

Compound	Potency	activity change, negative = inhibition
O=S(=O)(NCC(c1ccco1)S(=O)(=O)c1cccs1)c1ccccc1 (stereo unspecified)		inactive: -13.5%
Cc1ccc(OC(C)C(=O)N2CCN(CCc3ccccn3)CC2)cc1C (stereo unspecified)		inactive: -5.66%
COc1cccc(N2CC(NC(=O)c3cccs3)CC2=O)c1 (stereo unspecified)	inconclusive: 5.62 µM [inhibitor, partial curve]	
C(=N\N1CCN(c2ccccn2)CC1)/c1cccc2ccccc12	inconclusive: 14.1 µM [inhibitor, partial curve, poor fit]	
CCOc1c(OC(C)=O)ccc(/C=C2\N=C(SCC)SC2=O)c1[N+](=O)[O-]		inconclusive: -27.9% [inhibitor]
COc1ccc(-c2oc3ncn4nc(COc5ccc(Cl)cc5)nc4c3c2-c2ccc(OC)cc2)cc1		inactive: -16.4%
CCc1nnc2c(Nc3cc(OC)c(Cl)cc3OC)nc3ccccc3n12	inconclusive: 35.5 µM [inhibitor, single point]	
COc1ccc(NC(=O)c2cccc(-c3ccc(O)cc3)c2)cn1	inconclusive: 44.7 µM [inhibitor, partial curve, poor fit]	
COc1ccc(N(CC(=O)N2CCN(c3cccc(Cl)c3)CC2)S(=O)(=O)c2c(C)noc2C)cc1	inconclusive: 12.6 µM [inhibitor, partial curve, poor fit]	
COCCn1c(C)cc(O)c(C(c2cccc(F)c2)N2CCN(c3ccccc3)CC2)c1=O (stereo unspecified)	inconclusive: 39.8 µM [inhibitor, partial curve, poor fit]	
CC(C)NC(=O)C1CCCN(S(=O)(=O)c2ccc3c(ccn3C)c2)C1 (stereo unspecified)		inactive: -13.6%
CCOc1ccc(OCC)c(-c2c(=O)n(OCc3ccc(C(C)(C)C)cc3)c3ccccc3[n+]2[O-])c1	inconclusive: 39.8 µM [inhibitor, partial curve, poor fit]	
Cc1cc(C)cc(-n2ncc3c2CCCC3NC(=O)c2cc(C)n(C)n2)c1 (stereo unspecified)		inactive: -19.2%
O=C(c1c(F)cccc1F)N1CCCc2ccccc21		inactive: -9.5%
CCOCCCNC(=O)CN1C(=O)CCn2nc(-c3cccn3C)cc21	inconclusive: 11.2 µM [inhibitor, partial curve]	
C=CCNC(=S)N/N=C/c1ccc(C)c([N+](=O)[O-])c1		inactive: -6.98%
Cc1c(N=Cc2cc(Br)cc(Br)c2O)cccc1C(=O)O	inconclusive: 39.8 µM [inhibitor, partial curve, poor fit]	
CN1CCC/C1=C/C=C1\SC(=S)NC1=O	active: 25.1 µM	
CC(=O)c1cccc(N(C(=O)Cn2nnc3ccccc32)C(C(=O)NC2CCCCC2)c2cn(C)nc2C)c1 (stereo unspecified)		inactive: -21.6%
Cc1cc2c(=Cc3ccc(N(C)C)cc3)c3ccccc3n2[n+]1C	inconclusive: 35.5 µM [inhibitor, partial curve]	
COc1cc(C(=O)O/N=C2/C=C(C)C(=O)C=C2C)cc(OC)c1OC		inactive: -21.4%
Cc1ccc(-n2nc(C(=O)N(C)c3ccccc3Cl)c3c4ccccc4n(C)c3c2=O)cc1		inconclusive: -6.94% [inhibitor]

Sorted by length of the SMILES (rising): some entries from above
Compound	Potency	activity change, negative = inhibition
NNc1nc2ccc(F)cc2s1		inactive: -17.9%
COc1cccc(N2CC(NC(=O)c3cccs3)CC2=O)c1 (stereo unspecified)	inconclusive: 5.62 µM [inhibitor, partial curve]	
O=C(O)C1OC(Oc2cc3oc(-c4ccccc4)cc(=O)c3c(O)c2O)C(O)C(O)C1O (stereo unspecified)	inconclusive: 50.1 µM [inhibitor, partial curve]	
